PubChem BioAssay AID2685 (National Center for Advancing Translational Sciences (NCATS), 2010)
The other results are listed elsewhere or left out. Shown are side measurements of this screen, not its main read-out; they come without a call. Compounds called inactive in the main read-out are mostly missing here. The note in brackets gives the kind of curve behind each potency; many fits are weak.

Assay: qHTS Assay for Lipid Storage Modulators in Drosophila S3 Cells;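 as to cell number change: cells counted by Cell Tracker Red CMTPX staining in the red channel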
Details: BODIPY lipid droplet fluorescence, 18-24 h; for cell number change: measured here: cell count max response, cells fed with added oleic acid
Summary of the method: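 Drosophila S3 cells loaded with oleic acid (400 uM, as added) and compounds at several concentrations; lipid droplets imaged by 488-nm laser-scanning cytometry, 500–530 nm intensity and object ratio to cell channel. Percent activity normalized to 20 uM Triacsin C.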

[1] = measured here: lipid fluorescence (Fed channel) AC50, cells fed with added oleic acid
[2] = measured here: cell number channel AC50, cells fed with added oleic acid

SMILES | cell number change [%] | AC50 [1] | AC50 [2]
O=C(C1CCCCC1)N1CCCc2ccccc21 | 19.1 | 29.1 µM [falling, single point] | –
CCN(CC)c1ccc(/C=C(/C#N)C(=O)NCc2ccccc2)o1 | – | 16.4 µM [falling, partial curve] | –
COc1ccc(C)cc1NC(=O)c1ccc(CN2CCc3ccccc3C2)cc1 | 20.7 | 29.1 µM [rising, single point] | –
CCCNC(=O)COC(=O)c1ccc(Cl)c(S(=O)(=O)N2CCCC2)c1 | 12.4 | 0.651 µM [rising, full curve, poor fit] | –
COc1ccccc1C(=O)NC(=O)CSc1nc2nc(C)cc(C)n2n1 | 8.58 | 6.51 µM [falling, single point] | 6.51 µM [falling, single point]
Cc1ccc(S(=O)(=O)N2CCOCC2)cc1NC(=O)CN1CCN(C)CC1 | -4.69 | – | –
O=C1C(Cc2ccccc2)SC(=Nc2ccccc2)N1c1ccccc1 (stereo not given) | -9.2 | – | –
O=C(CCCSc1nc2ccccc2[nH]1)Nc1nnc(-c2ccccc2)o1 | -25.6 | 23.1 µM [falling, single point] | –
CCN1CCN(CC(=O)N2N=C(c3cccs3)CC2c2ccc(OC)c(OC)c2)C(=O)C1=O (stereo not given) | 14.8 | – | –
COC(=O)CCCCCc1ccc(C(C)=O)s1 | 18.6 | – | 0.116 µM [falling, full curve, poor fit]
Cc1ccccc1-n1nnnc1-c1ccccc1 | -4.37 | 0.058 µM [rising, full curve] | –
Cc1cccc(NC(=O)CNC(=O)c2cn(Cc3ccccc3)nc2-c2cccnc2)c1C | 1.47 | 14.6 µM [rising, partial curve] | –
O=C(c1ccc(Oc2ccc(C(F)(F)F)cn2)cc1)N1CCN(c2ccccc2)CC1 | – | 23.1 µM [rising, single point] | –
CCOC(=O)c1ccccc1NC(=O)COC(=O)C1CC(=O)N(CCc2ccccc2)C1 (stereo not given) | 18.5 | – | –
O=C(OCc1nnc(-c2ccc([N+](=O)[O-])cc2)o1)c1ccc(F)c(S(=O)(=O)N2CCOCC2)c1 | -2.01 | – | –
COc1cccc(CN=C2Nc3ccccc3CS2)c1 | 22.3 | – | 0.13 µM [rising, full curve, poor fit]
Cc1cc(C)n2nc(SCc3nnc(SCc4ccccc4C)s3)nc2n1 | – | 4.11 µM [rising, partial curve] | 3.26 µM [rising, single point]
COCCCNC(=S)N1CCCN(c2nc3cc(C)c(C)cc3cc2C#N)CC1 | 1.57 | 29.1 µM [falling, single point] | –
O=C(COc1ccccc1Cl)N1CCNC1=O | 1.5 | – | –
Cc1ccc(NC(=O)C2CCCN2C(=O)c2cccs2)cc1C (stereo not given) | 38.3 | 1.46 µM [falling, full curve, poor fit] | 9.2 µM [rising, partial curve, poor fit]
Cc1c(C(=O)Nc2ccc(Cc3ccncc3)cc2)cccc1[N+](=O)[O-] | -9.11 | – | –
COC(=O)CNC(=O)C(NC(=O)c1ccc(Cl)cc1)C(C)C (stereo not given) | – | 29.1 µM [falling, partial curve] | –

SMILES | cell number change [%] | AC50 [1] | AC50 [2]
O=C(Nc1ccc(Oc2ccc(Cl)cc2)c(Cl)c1)c1cc(I)cc(I)c1O | -4.24 | – | –
CC(=O)Nc1ccc(NC(=O)c2sc3nc4c(c(-c5ccc(C)cc5)c3c2N)CCC4)cc1 | -45.7 | 23.1 µM [falling, single point] | 23.1 µM [falling, single point]
Fc1ccc2nc(N3CCCCC3)sc2c1 | 45.1 | 0.116 µM [rising, full curve, poor fit] | 0.731 µM [rising, full curve, poor fit]
COc1cccc(CNC(=O)N[C@@H](CC(C)C)C(=O)O)c1 | 17.8 | 20.6 µM [falling, single point] | –
NC(=O)c1ccc(-n2nnnc2SCC(=O)Nc2ccccc2)cc1 | 4.99 | – | –
Cc1cc(N2C(=O)C(O)=C(C(=O)c3ccco3)C2c2cccc(O)c2)no1 (stereo not given) | 11.9 | – | –
CCOc1ccc2c(c1)c(C(C)=O)c(C)n2-c1ccccc1 | 41.8 | – | 1.84 µM [rising, full curve]
COc1ccc(NC(=O)Cc2cccc3ccccc23)cc1 | -8.29 | 29.1 µM [rising, single point] | –
CCc1n[nH]c(=S)n1/N=C/c1c[nH]c2ccc(Br)cc12 | 20.4 | – | –
COc1ccc(-n2ncc3c2CC(C)(C)CC3NC(=O)c2cnc(C)cn2)cc1 (stereo not given) | -12.7 | 0.731 µM [falling, full curve, poor fit] | –
COc1cccc(OCc2cc(/C=N/Nc3ccc(C(=O)O)cc3)ccc2OC)c1 | -6.67 | – | 0.651 µM [falling, single point]
CNC(=O)/C(C#N)=C/c1c(F)cccc1Cl | – | 13 µM [falling, partial curve] | –
O=C1CC(N2CCCCCC2)C(=O)N1c1ccc2c(c1)OCO2 (stereo not given) | -2.23 | 29.1 µM [rising, single point] | –
CC(=O)c1ccc(NC(=O)CSc2nnc(-c3ccoc3C)n2Cc2ccccc2)cc1 | – | 0.731 µM [rising, full curve] | 1.84 µM [rising, partial curve]
CCOC(=O)c1cc2n(c1/N=C/N(C)C)-c1ccccc1C2=O | 126 | 0.411 µM [rising, partial curve, poor fit] | 0.291 µM [rising, full curve]
COc1ccc(CNC(=O)CCCn2nc(C)n3c(cc4sccc43)c2=O)cc1 | 11.8 | 29.1 µM [falling, single point] | –
Cc1cc(C)cc(NC(=O)C2CCCN(S(=O)(=O)c3ccc4[nH]c(=O)ccc4c3)C2)c1 (stereo not given) | 19.9 | – | 0.58 µM [rising, full curve, poor fit]
O=C(NCCn1cccn1)C1CCC(=O)N(CCc2cccc(F)c2)C1 (stereo not given) | 13.9 | – | 0.13 µM [rising, full curve, poor fit]
Cc1cccn2c(=O)c(C=C(C#N)C#N)c(N3CCN(c4cccc(Cl)c4)CC3)nc12 | 2.95 | 6.51 µM [falling, partial curve, poor fit] | –
CCOC(=O)N1CCN(S(=O)(=O)c2ccc(OCC)cc2)CC1 | 41.9 | – | 29.1 µM [rising, single point]
O=C(NC(=S)NCc1ccccc1)c1cccnc1 | 18.8 | 1.03 µM [rising, partial curve, poor fit] | –
COc1ccc(N=Nc2nc3ccc(Br)cc3n2C)cc1 | 29.3 | 8.2 µM [rising, partial curve] | –

SMILES | cell number change [%] | AC50 [1] | AC50 [2]
CSCCC(NS(=O)(=O)c1ccccc1F)C(=O)OCc1ccccc1Cl (stereo not given) | -6.54 | 25.9 µM [rising, single point] | –
CCOC(=O)c1cnc2ccc(Br)cc2c1NCCO | -12 | 2.91 µM [rising, partial curve] | –
CCOC(=O)c1ccc[n+](CC(=O)c2ccccc2)c1 | -10.2 | 3.66 µM [rising, single point] | –
Cc1ccc(Cl)cc1NC(=O)c1ccccc1OCC(=O)Nc1ccc(Cl)cc1 | -55.2 | 18.4 µM [falling, single point] | 20.6 µM [falling, single point]
COC(=O)C1(C)NC(c2ccc(O)cc2)C2C(=O)N(c3ccccc3)C(=O)C21 (stereo not given) | -5.57 | 0.731 µM [rising, full curve, poor fit] | –
O=C(CSc1nnc(C2CC2)n1Cc1ccccc1)N1CCN(S(=O)(=O)c2ccccc2)CC1 | -17.3 | 29.1 µM [rising, single point] | –
Cc1ccc(-n2cc[nH]c2=S)c(C)c1 | -96.5 | – | –
CC1CCCN(C(=O)CCCn2c(=S)[nH]c3ccccc3c2=O)C1 (stereo not given) | -36.5 | 10.3 µM [falling, partial curve] | 14.6 µM [falling, partial curve]
N#Cc1cccc(N=c2ssnc2Cl)c1 | -14.1 | – | 6.51 µM [rising, partial curve, poor fit]
COc1ccc(CCN(C)CC(=O)Nc2cc(C)nc3ccccc23)cc1OC | -0.8 | 3.26 µM [falling, single point] | –
Cc1oc(C(C)(C)C)cc1C(=O)Nc1ccc(C(=O)O)cc1 | 0.421 | – | –
O=C(NCCN1C(=O)S/C(=C/c2ccccc2)C1=O)C1CCCN1C(=O)c1cccs1 (stereo not given) | -31.5 | 23.1 µM [falling, partial curve] | 18.4 µM [falling, partial curve, poor fit]
Cc1ccc2cc3cc(C(=O)N4CCCCC4C)oc3nc2c1 (stereo not given) | -3.16 | – | –
OCCN1CCN(C(=S)NC2CCCC2)CC1 | 37.5 | – | –
Cc1cc(C)n2nc(S(=O)(=O)NCCc3ccccc3)nc2n1 | -0.552 | – | –
CC(C)CNS(=O)(=O)c1ccccc1C(=O)N1CCCCC1 | 52.3 | 14.6 µM [rising, partial curve] | –
O=C(CN(Cc1ccccc1)C(=O)c1cccc([N+](=O)[O-])c1)Nc1c(Cl)cc(Cl)cc1Cl | 14.6 | 14.6 µM [rising, single point] | –
O=c1[nH]c(C2CCN(S(=O)(=O)c3ccc(C(F)(F)F)cc3)CC2)nc2c1nnn2Cc1cccc(F)c1 | 2.08 | 1.16 µM [falling, single point] | –
Cc1ccc(OCC(O)Cn2c(N)nc3c2c(=O)n(C)c(=O)n3C)cc1 (stereo not given) | -19.2 | 23.1 µM [falling, single point] | –
CCOc1cc(NC(=O)C2CCCO2)c(OCC)cc1NC(=O)C1CC1 (stereo not given) | 13.8 | – | –

Ordered by molar mass (descending): three of the compounds above.
SMILES | cell number change [%] | AC50 [1] | AC50 [2]
COc1ccc(-n2ncc3c2CC(C)(C)CC3NC(=O)c2cnc(C)cn2)cc1 (stereo not given) | -12.7 | 0.731 µM [falling, full curve, poor fit] | –
CCN(CC)c1ccc(/C=C(/C#N)C(=O)NCc2ccccc2)o1 | – | 16.4 µM [falling, partial curve] | –
OCCN1CCN(C(=S)NC2CCCC2)CC1 | 37.5 | – | –
